# Assay results: the supplement of paper PMC3334620
# Over roughly 33,000 sequences, “E-score (-0.5 to 0.5)” has its median near -0.0014; the highest 2% begin near 0.25. Some of the results follow.
# Biological target: T1, Cad1 (UniProt P24813)
# T1 sequence: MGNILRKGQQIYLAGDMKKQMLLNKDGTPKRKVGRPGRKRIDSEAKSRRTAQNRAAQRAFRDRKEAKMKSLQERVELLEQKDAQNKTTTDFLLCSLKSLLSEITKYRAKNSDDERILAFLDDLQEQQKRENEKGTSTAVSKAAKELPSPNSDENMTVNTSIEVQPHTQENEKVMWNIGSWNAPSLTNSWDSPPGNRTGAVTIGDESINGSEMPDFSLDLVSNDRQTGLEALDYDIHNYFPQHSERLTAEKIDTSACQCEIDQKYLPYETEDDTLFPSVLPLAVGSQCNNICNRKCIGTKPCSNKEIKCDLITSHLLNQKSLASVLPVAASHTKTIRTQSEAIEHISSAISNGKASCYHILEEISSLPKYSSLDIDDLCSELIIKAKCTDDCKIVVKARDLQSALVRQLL
# Test: PBM E-score (8-mer binding enrichment) (E-score (-0.5 to 0.5)); higher = stronger / more preferred TF binding
# Conditions: protein concentration: 100 nM; construct: GST-full length
# Summary of the method: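 Bound GST-tagged yeast transcription factors, applied at about 100-200 nM to double-stranded universal all-10-mer Agilent arrays, were detected with fluorescent anti-GST. Scans were normalised with masliner. A modified Wilcoxon-Mann-Whitney statistic, the E-score, was assigned to each ungapped eight-base word pooled with its reverse complement by the Universal PBM Analysis Suite.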
row,Sequence,PBM E-score
1,ATAGAGAT,0.139
2,GAGTGCCA,-0.28
3,GCAGCCGA,0.067
4,GACAATGA,-0.0996
5,ATCATATC,0.163
6,ACATTGCG,0.0247
7,AACACCCA,-0.105
8,GCGCTGTA,0.107
9,GCACGAAA,0.197
10,ATTCGTGA,0.104
11,AACAACCG,0.0924
12,AAATATAT,0.305
13,ATCAACGA,0.13
14,CAGGACAC,0.0927
15,TATAATCA,0.31
16,TGCTGACA,0.334
17,CAAGAATC,0.0508
18,CGCAAAAA,0.185
19,AGTCCACA,-0.141
20,AGCGCCTC,-0.0985
21,CACTTCCA,-0.0966
22,ACAGTATG,0.0341
23,CGGGTTCA,0.052
24,CATATAAC,-0.0307
25,ACCCCACT,-0.0801

# A second format for part of the listing above.
row	Sequence	PBM E-score
1	ATAGAGAT	0.139
8	GCGCTGTA	0.107
11	AACAACCG	0.0924
13	ATCAACGA	0.13
18	CGCAAAAA	0.185
22	ACAGTATG	0.0341

# Further entries.

row,Sequence,PBM E-score
1,AACATTAT,0.141
2,CAGATGTA,-0.0786
3,AAGCACAG,0.0641
4,AAATGTAT,0.0386
5,CAAGCCGA,0.168
6,GGTCTTCA,-0.156
7,CCCTTCGC,-0.101
8,ACTCCGGG,0.073
9,TCTAGCCA,-0.0602
10,AAAGCAAC,0.0556
11,AACAGTCG,-0.00121
12,GGGGATAA,-0.0212
13,ACGGCGGA,0.00266
14,CCGGGCCC,-0.0165
15,AGTACCAA,0.0522
16,AGCACGTC,0.0443
17,CAAAGGGA,-0.0627
18,TGCGTTAA,-0.0188
19,CCATAGAA,-0.114
20,CAAATTCC,0.142
21,CACGGTTA,0.0415
22,GTATCACA,0.159
23,TTACAGAA,0.0115
24,AACATCAC,-0.0011
25,GGAATCGA,0.00927

row,Sequence,PBM E-score
1,ATACACAC,0.077
2,AGTCGTGG,-0.126
3,GAACAAAC,0.0779
4,CGGATGTA,-0.0954
5,AGGAGGCA,-0.195
6,AGGCTTCC,0.0378
7,CCCGTGAA,0.064
8,GAATCGCC,-0.149
9,TTGGTAAA,0.073
10,GTAGAAAA,-0.0723
11,TGATCTAA,0.0715
12,GGTCTGAA,0.123
13,AGCCGATA,-0.15
14,GCTGTGGA,0.0345
15,ACAGACGG,-0.122
16,AAATGGCC,-0.0974
17,ACTTACGG,0.0069
18,ATGAGGCC,-0.0755
19,CTTGACTC,-0.0762
20,CAGACGAG,-0.0718
21,CGCTTAAC,0.15
22,CCGTCGTC,-0.165
23,ATTCGCGC,0.17
24,GGGCCACA,-0.17
25,CCGTATCG,-0.122

row,Sequence,PBM E-score
1,CCGCGCAG,0.105
2,AAGGTCCA,-0.122
3,GTGTTGAA,0.0548
4,GACCGATC,-0.128
5,ATTGAATG,0.144
6,CAAGTACG,-0.268
7,ATCCTGCA,0.151
8,AGTCCTCA,-0.0221
9,CGCAGACG,0.257
10,AGAAGCCC,0.0204
11,CATAGGTC,0.0654
12,GGGCCCCA,-0.271
13,CAATCGTC,0.114
14,CTTACATA,0.278
15,ACGAAGGG,-0.146
16,TACTTTCA,0.0645
17,CCGTCACA,-0.105
18,ACCTTAGG,-0.127
19,GGCGTTAC,-0.0303
20,ACGTAGGC,-0.169
21,AGATACCG,0.0348
22,CTTGGCTC,-0.149
23,AGCGGAGG,-0.243
24,AAAGCTCT,-0.28
25,AACCTATC,-0.102

row,Sequence,PBM E-score
1,GAATCACA,0.0724
2,CCCCCTTA,-0.366
3,AGCTTGAC,-0.247
4,CCCTACTC,-0.0421
5,AATCTACA,0.0319
6,AGTGACAC,0.161
7,CGAGACGC,0.0549
8,AATACATT,-0.0548
9,AGGAGCAT,-0.178
10,AGTTAACC,-0.0205
11,AAACGCTT,-0.0971
12,TCTTAACA,0.0995
13,CACTTGAA,-0.118
14,CGCATAGA,0.0454
15,CAGTCAAA,-0.108
16,ACAGGCAC,-0.204
17,TATGGCGA,-0.121
18,CCCGATGA,0.166
19,ATAGAGAA,0.075
20,AGATAAGA,0.193
21,AGCGCAGC,-0.166
22,CTTACAGA,0.0522
23,CAATGCAG,0.017
24,CGTGACTA,0.015
25,CTAATCGA,0.315

row,Sequence,PBM E-score
1,AATACCGA,0.0631
2,ACTCTGAA,0.0242
3,ACAATGTC,0.11
4,AAAAGTGG,0.139
5,CCCTGCGG,-0.272
6,AACACTCT,0.0621
7,ATTACTCA,0.325
8,ACTATGCC,0.0219
9,CCAAATGC,-0.0453
10,AGTACTAT,-0.0502
11,CGCTATAA,0.0164
12,TCGGGTCA,0.134
13,AGCCAGTG,-0.142
14,ATCCGCCG,0.193
15,AGTTGTTA,0.16
16,AAGCGTGT,-0.0443
17,GACCAAGC,0.0511
18,AATAACAC,0.0256
19,ACATCAAC,0.118
20,AAACCCAG,0.0892
21,CCACCAAG,-0.179
22,ATAGCCAG,0.00967
23,GAAAAGGA,-0.123
24,GGACAAAC,0.00662
25,AACATCCA,0.00173

row,Sequence,PBM E-score
1,ATCAATGC,0.0236
2,TCCTGCCA,-0.0184
3,GAGCTAAA,-0.167
4,ATTTGTGA,0.163
5,AAATTGAT,0.153
6,CCTGATCG,-0.0975
7,ACGGGTCA,-0.228
8,ATGGAAAA,0.0253
9,ACCTCCAA,-0.0902
10,ACAACTGC,0.106
11,AAATACAT,0.0844
12,ATGATCTG,0.146
13,AGGGACCT,-0.155
14,CCGGGAGC,-0.188
15,CAACATCC,-0.179
16,CGACAAGC,-0.247
17,CGCTGTGC,-0.117
18,CAAACCAC,0.00562
19,ACATCAAT,0.0848
20,GAAGTTAA,-0.0192
21,CCAAAGTA,-0.154
22,AGGCTGAG,-0.0706

# Quoted from the listing:
# Value of ATGATCTG under PBM E-score: 0.146
# Value of CCTGATCG under PBM E-score: -0.0975
# Value of ATCAATGC under PBM E-score: 0.0236
# Value of GAGCTAAA under PBM E-score: -0.167
# Value of AAATTGAT under PBM E-score: 0.153
# Value of ACAACTGC under PBM E-score: 0.106
# Value of CAAACCAC under PBM E-score: 0.00562
